The values below come from patent US5164321A, “Process for the removal of non-specific turbidities” (priority 1987, dated 1992).

Several values for one entry are separate records, joined by “and”; a condition that tells them apart may be missing. Identical values can stand only once.

Series [1] can be described thus: Non-specific agglutination in latex immunoassay for AFP determination (turbidity at 623 nm, Example 1). More on the design: species or system human. To be noted: 120 mmole/l in the test.
The nature of series [2]: Non-specific agglutination in latex immunoassay for TSH determination (Example 2). Further details: species or system human. To be noted: for non-specific agglutination, boron compound alone: 120 mmole/l in the test.

Regarding `[Na+].[Na+].[O-]B1OB2OB([O-])OB(O1)O2` [tetraborate, sodium tetraborate], the “non-specific agglutination, boron compound alone” value in series [1] is 0 ME/5 min.

As for `O=B[O-].[Na+]` [metaborate, sodium metaborate], the “non-specific agglutination, boron compound alone” value in series [1] was 106 ME/5 min; in series [2] it was 106 mE/5 min.

As for sodium perborate, in series [1], the “non-specific agglutination, boron compound alone” value is given as 92 ME/5 min.

Take `OB(O)O` [boric acid]: the “non-specific agglutination, boron compound alone” value was 253 ME/5 min in series [1] and 230 mE/5 min in series [2].

As to `NC(CO)(CO)CO` [TRIS], the “non-specific agglutination, buffer” value in series [2] (buffer alone, 70 mmole/l in the test, pH 7.0) was 120 mE/5 min. and 142 mE/5 min.
